Assay results as given in the supplement of paper PMC7024190.
Some of the results follow. Single values are uncertain here, since repeats match poorly.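 The cells were human embryonic kidney cells carrying a Renilla luciferase gene, driven by the HSV-TK promoter, on a plasmid put in briefly by transfection. This is the first-round screen of about ten thousand compounds, looking for ones that raise reporter output.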

System: HEK 293FT
Assay: log relative Renilla luciferase luminescence (reporter expression vs reference, reference not stated) (log (base not stated)); higher = higher recombinant reporter expression
Settings: 10 µM; time after transfection 48 h

SMILES	log
COc1ccc2[nH]cc(CCN)c2c1 [5-Methoxytryptamine]	-1.05
c1cncc([C@@H]2CCCN2)c1 [Nornicotine]	0.0864
Oc1cc2c(cc1O)[C@H]1c3ccccc3CN[C@@H]1CC2	0.015
CCOC(=O)C1(c2ccccc2)CCN(CCC(C#N)(c2ccccc2)c2ccccc2)CC1	-0.327
CC(=O)O[C@H]1C[C@@H]2CC[C@@H]3[C@H](CC[C@@]4(C)[C@H]3C[C@H]([N+]3(C)CCCCC3)[C@@H]4OC(C)=O)[C@@]2(C)C[C@@H]1[N+]1(C)CCCCC1 [Pancuronium]	0.0946
C[C@]12Cc3c[nH]nc3C[C@@H]1CC[C@@H]1[C@@H]2CC[C@@]2(C)[C@H]1CC[C@]2(C)O [Stanozolol]	0.045
CC(C)[C@]12O[C@H]1[C@@H]1O[C@]13[C@]1(O[C@H]1C[C@H]1C4=C(CC[C@@]13C)C(=O)OC4)[C@@H]2O	-1.27
C[C@]12CCC(=O)C[C@@H]1CC[C@@H]1[C@@H]2CC[C@@]2(C)[C@H]1CC[C@]2(C)O [Mestanolone]	-0.0753
CNC1CC(c2ccc(Cl)c(Cl)c2)c2ccccc21 (configuration not stated) [Indatraline]	0.07
C=C1C[C@@H]2[C@H](CC[C@]3(C)C(=O)CC[C@@H]23)[C@@]2(C)C=CC(=O)C=C12	-0.211
CN1CC[C@]2(c3cccc(O)c3)Cc3nc4ccccc4cc3C[C@H]2C1	0.129
C=C(C)[C@@H]1[C@H]2OC(=O)[C@@H]1[C@]1(O)C[C@H]3O[C@]34C(=O)O[C@H]2[C@]14C.CC(C)(O)[C@@H]1[C@H]2OC(=O)[C@@H]1[C@]1(O)C[C@H]3O[C@]34C(=O)O[C@H]2[C@]14C [Picrotin - Picrotoxinin]	0.103
